# Results are given in words; binding and its absence hold for the method and conditions named. In cells and extracts the contact can be indirect. Some results given as binding are weak or reduced against the parent protein; the word gives no strength. Sequences can lack the tags named with a protein.
# Amino acid sequences for entries named in this document (tags omitted).
# UniProt Q13242: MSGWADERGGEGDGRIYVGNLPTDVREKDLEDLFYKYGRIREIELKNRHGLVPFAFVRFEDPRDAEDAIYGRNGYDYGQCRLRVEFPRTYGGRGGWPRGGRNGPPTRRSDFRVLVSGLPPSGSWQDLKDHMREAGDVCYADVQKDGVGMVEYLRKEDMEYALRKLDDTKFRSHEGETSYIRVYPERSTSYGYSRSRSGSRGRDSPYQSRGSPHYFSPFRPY
# Biological target: T1, Flag-tagged zebrafish Endouc (Ec-Flag), expressed in HEK293T cells (zebrafish) (UniProt Q1LUM3)
# T1 sequence: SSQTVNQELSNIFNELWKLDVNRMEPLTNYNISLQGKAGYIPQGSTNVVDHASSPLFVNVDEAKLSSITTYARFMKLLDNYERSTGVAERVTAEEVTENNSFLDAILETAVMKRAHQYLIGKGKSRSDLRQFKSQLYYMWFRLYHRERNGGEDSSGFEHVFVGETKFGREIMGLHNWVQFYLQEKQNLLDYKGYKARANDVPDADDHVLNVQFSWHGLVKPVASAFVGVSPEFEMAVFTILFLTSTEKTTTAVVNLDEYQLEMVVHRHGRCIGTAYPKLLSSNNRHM
# Assay: co-IP; HEK293T cells transfected 48 h with Flag- and Myc-tagged expression vectors, IP lysis buffer, cleared lysate with anti-Flag beads overnight, 6 washes, elution with 3xFLAG peptide at 4°C, immunoblot
substance,measurement,value
Myc-tagged human Srsf9 (Srsf9-Myc) (from UniProt Q13242 1-221),binding,binds
